# Results from publication PMC12431657, “Discovery and mechanistic insights of dibenzoylmethane as a broad spectrum inhibitor of coronavirus” (PLOS Pathogens, 2025).
# Counter-ions that a name gives are not always drawn. Like-named read-outs stand apart in the source and are kept apart here. In all, about 3,300 compounds went through this assay and about 95 (3%) showed an effect of 50% or more. The list shows a part of the results. Peptide text beside a SMILES is read from it.
# System: HCoV-229E
# Set-up: species or system Huh-7; HTS, protection from HCoV-229E induced cell death, luminescent cell viability (CellCounting-Lite 2.0), inhibition rate
# Conditions: 24 h post infection, 1 h compound pre-incubation, 10 µM, inhibitor
structure (smiles),measurement,setting,value
"COC(=O)c1ccc(O)c(O)c1 [Methyl 3,4-dihydroxybenzoate]",229E Inhibition rate,,27.5%
C=C(C)[C@@H]1CC[C@]2(C)CC[C@]3(C)[C@H](CC[C@@H]4[C@@]5(C)CC[C@H](O)C(C)(C)[C@@H]5CC[C@]43C)[C@@H]12 [Lupeol],229E Inhibition rate,,5.5%
C=C1CCC[C@]2(C)C[C@@H]3OC(=O)C(C)=C3C[C@@H]12 [Atractylenolide II],229E Inhibition rate,,11.9%
C[C@H]1O[C@@H](O[C@H]2[C@@H](O)C[C@H](O[C@H]3[C@@H](O)C[C@H](O[C@H]4CC[C@@]5(C)[C@H](CC[C@@H]6[C@@H]5CC[C@]5(C)[C@@H](C7=CC(=O)OC7)CC[C@]65O)C4)O[C@@H]3C)O[C@@H]2C)C[C@H](O)[C@@H]1O [Digitoxin],229E Inhibition rate,,25%
Cn1c(Cc2ccccc2)nc(=O)c2ccccc21 [Arborine],229E Inhibition rate,,9.1%
Cc1cc2nc3c(=O)[nH]c(=O)nc-3n(C[C@H](O)[C@H](O)[C@H](O)COP(=O)(O)OP(=O)(O)OC[C@H]3O[C@@H](n4cnc5c(N)ncnc54)[C@H](O)[C@@H]3O)c2cc1C [Flavin adenine dinucleotide (disodium salt)],229E Inhibition rate,,22.7%
COc1cc2c(cc1O)CC[n+]1cc3c(OC)c(OC)ccc3cc1-2 [Jatrorrhizine (chloride)],229E Inhibition rate,"229E Inhibition rate, 24 h",16%
CC(=O)c1ccc2ccccc2c1 [2-Acetonaphthone],229E Inhibition rate,,17.5%
Cc1ccccc1C(=O)NCC(=O)O [2-(2-Methylbenzamido)acetic acid],229E Inhibition rate,,54.8%
C=C(C(=O)O)[C@H]1CC[C@H](C)[C@@H]2CC(=O)C(C)=C2C1 [Rupestonic acid],229E Inhibition rate,,12.5%
CCC(CC)C(=O)O [2-Ethylbutyric acid],229E Inhibition rate,,24.1%
C=C[C@@](C)(/C=C/c1ccc(O)cc1)CCC=C(C)C [Bakuchiol],229E Inhibition rate,,18.3%
C[C@@H](O)C(=O)O [D-(-)-Lactic acid (sodium)],229E Inhibition rate,,8.1%
CC(C)[C@@H]1CC[C@@H](C)CC1=O [Menthone],229E Inhibition rate,,20.2%
COc1cc(-c2c3c(c(O)c4cc5c(cc24)OCO5)COC3=O)cc(OC)c1OC [Tetradehydropodophyllotoxin],229E Inhibition rate,,21%
CC1(C)CC[C@]2(C(=O)O)CC[C@]3(C)C(=CC[C@@H]4[C@@]5(C)C[C@@H](O)[C@H](O)[C@@](C)(CO)[C@@H]5CC[C@]43C)[C@@H]2C1 [Arjunolic acid],229E Inhibition rate,,21.2%
CC(C(=O)O)C(O)(CC(=O)O)C(=O)O (stereo not drawn) [2-Methylcitric acid],229E Inhibition rate,,13.8%
CO[C@@H]1[C@@H](OC)[C@H](C)[C@@](O)(CC(=O)O)O[C@H]1[C@H](C)[C@H]1O[C@@]2(CC[C@@](C)([C@H]3CC[C@@](C)([C@@H]4O[C@@H]([C@H]5O[C@](C)(O)[C@H](C)C[C@@H]5C)C[C@@H]4O[C@@H]4C[C@H](OC)[C@@H](OC)[C@H](C)O4)O3)O2)C[C@H](O)[C@H]1C [Maduramicin (ammonium)],229E Inhibition rate,,3.4%
"NCCCCN [1,4-Diaminobutane (dihydrochloride)]",229E Inhibition rate,,38%
COc1cc(-c2oc3cc(O)cc(O)c3c(=O)c2O[C@@H]2O[C@H](CO[C@@H]3O[C@@H](C)[C@H](O)[C@@H](O)[C@H]3O)[C@@H](O)[C@H](O)[C@H]2O[C@@H]2O[C@@H](C)[C@H](O)[C@@H](O)[C@H]2O)ccc1O [Typhaneoside],229E Inhibition rate,,16.9%
CC(C)[C@@H]1NC(=O)CNC(=O)[C@H](C)NC(=O)[C@H](Cc2c[nH]c3ccccc23)NC(=O)[C@H](C)NC1=O [Segetalin B] (cyclo(AGVAW)),229E Inhibition rate,,9.2%
C=C(C)[C@@H]1CC[C@]2(C)[C@H](CC=C3[C@@H]4[C@@H](C)[C@H](C)CC[C@]4(C)CC[C@]32C)[C@@]1(C)CCC(=O)O [Roburic acid],229E Inhibition rate,,29.2%
COc1cc2ccc(=O)oc2cc1O [Scopoletin],229E Inhibition rate,,15%
O=C(C[C@H]1NCCC[C@@H]1O)Cn1cnc2cc(Br)c(Cl)cc2c1=O (racemic) [Halofuginone],229E Inhibition rate,"229E Inhibition rate, 24 h",29.9%
O=C(O)CCCC[C@@H]1CCSS1 [Lipoic acid],229E Inhibition rate,,22.6%
"Cc1cc(O)cc(C)c1O [2,6-Dimethylhydroquinone]",229E Inhibition rate,,22.1%
O=Cc1cccs1 [2-Thiophenecarboxaldehyde],229E Inhibition rate,,6.5%
CCCSSC [Methyl propyl disulfide],229E Inhibition rate,,9.2%
C1=Cc2cccc3cccc1c23 [Acenaphthylene],229E Inhibition rate,,13.4%
CC(C)CCC[C@@H](C)[C@H]1CC[C@H]2[C@@H]3CC[C@H]4CC(=O)CC[C@]4(C)[C@H]3CC[C@]12C [5α-Cholestan-3-one],229E Inhibition rate,,7.8%
C=C1C[C@@]23CC[C@H]4[C@@](C)(CCC[C@@]4(C)C(=O)O[C@@H]4O[C@H](CO)[C@@H](O)[C@H](O)[C@H]4O)[C@@H]2CC[C@]1(O[C@@H]1O[C@H](CO)[C@@H](O)[C@H](O)[C@H]1O)C3 [Rubusoside],229E Inhibition rate,,5.1%
CC/C=C\C/C=C\C/C=C\CCCCCCCC(=O)OC [Methyl linolenate],229E Inhibition rate,,18.3%
COC(=O)[C@]12OC[C@]34[C@H]([C@@H](O)[C@@H]1O)[C@@]1(C)CC(=O)C(O)=C(C)[C@@H]1C[C@H]3OC(=O)[C@H](OC(=O)C=C(C)C)[C@@H]24 [Brusatol],229E Inhibition rate,,15.3%
COc1ccc2c(OC)c3ccoc3nc2c1 [Evolitrine],229E Inhibition rate,,8.5%
c1cncc([C@@H]2CCCCN2)c1 [Anabasine],229E Inhibition rate,,10.7%
C[C@@H](N)C(=O)O [D-Alanine],229E Inhibition rate,,14.5%
O=c1[nH]cc(CO)c(=O)[nH]1 [5-Hydroxymethyluracil],229E Inhibition rate,,7%
COc1ccc(-c2coc3cc(O[C@@H]4O[C@H](CO)[C@@H](O)[C@H](O)[C@H]4O)ccc3c2=O)cc1O [Calycosin-7-O-β-D-glucoside],229E Inhibition rate,,17.9%
CC1(C)CC[C@]2(C(=O)O[C@@H]3O[C@H](CO)[C@@H](O)[C@H](O)[C@H]3O)CC[C@]3(C)C(=CC[C@@H]4[C@@]5(C)CC[C@H](O)C(C)(C)[C@@H]5CC[C@]43C)[C@@H]2C1 [Oleanolic acid 28-O-β-D-glucopyranoside],229E Inhibition rate,,21.6%

# Part of the list above, bar-delimited.
structure (smiles) | measurement | setting | value
Cc1ccccc1C(=O)NCC(=O)O [2-(2-Methylbenzamido)acetic acid] | 229E Inhibition rate |  | 54.8%
O=Cc1cccs1 [2-Thiophenecarboxaldehyde] | 229E Inhibition rate |  | 6.5%
CC/C=C\C/C=C\C/C=C\CCCCCCCC(=O)OC [Methyl linolenate] | 229E Inhibition rate |  | 18.3%
